These are yes or no findings as the source states them, for the method shown. In cells and extracts the contact can be indirect. Some entries that bind do so weakly or less than the wild type.

Sequences of proteins named here, by UniProt entry; tags and fusion partners are left off. A change or cut given only in a name is not applied to a line headed by its entry. A line that says so, or that is headed by a name, gives the form on record, which may keep a tag or linker.
UniProt P29067: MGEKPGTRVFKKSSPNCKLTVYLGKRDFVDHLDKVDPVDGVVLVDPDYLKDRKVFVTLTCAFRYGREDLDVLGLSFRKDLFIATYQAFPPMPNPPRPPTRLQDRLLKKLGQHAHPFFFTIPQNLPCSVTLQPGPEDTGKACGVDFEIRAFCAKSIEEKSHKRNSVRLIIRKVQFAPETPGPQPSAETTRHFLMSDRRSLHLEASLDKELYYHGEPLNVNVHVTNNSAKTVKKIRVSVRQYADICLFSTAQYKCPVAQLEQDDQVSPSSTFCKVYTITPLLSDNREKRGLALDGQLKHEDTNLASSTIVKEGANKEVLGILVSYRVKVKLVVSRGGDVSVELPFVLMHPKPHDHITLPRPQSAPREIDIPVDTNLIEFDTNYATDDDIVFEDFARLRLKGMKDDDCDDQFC
YFP-β-arrestin2 Thr383Asp mutant (P29067, form named): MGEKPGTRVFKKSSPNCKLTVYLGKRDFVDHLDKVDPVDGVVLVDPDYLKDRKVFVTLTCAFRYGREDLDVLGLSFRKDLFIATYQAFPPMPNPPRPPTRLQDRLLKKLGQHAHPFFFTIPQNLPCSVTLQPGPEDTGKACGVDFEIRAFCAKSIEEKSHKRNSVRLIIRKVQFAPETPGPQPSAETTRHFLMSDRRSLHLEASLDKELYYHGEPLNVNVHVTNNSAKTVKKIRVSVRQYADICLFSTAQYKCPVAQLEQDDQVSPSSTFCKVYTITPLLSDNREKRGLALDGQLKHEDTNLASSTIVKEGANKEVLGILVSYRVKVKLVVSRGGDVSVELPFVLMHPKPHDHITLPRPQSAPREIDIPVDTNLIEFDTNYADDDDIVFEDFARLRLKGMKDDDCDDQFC
UniProt P28482: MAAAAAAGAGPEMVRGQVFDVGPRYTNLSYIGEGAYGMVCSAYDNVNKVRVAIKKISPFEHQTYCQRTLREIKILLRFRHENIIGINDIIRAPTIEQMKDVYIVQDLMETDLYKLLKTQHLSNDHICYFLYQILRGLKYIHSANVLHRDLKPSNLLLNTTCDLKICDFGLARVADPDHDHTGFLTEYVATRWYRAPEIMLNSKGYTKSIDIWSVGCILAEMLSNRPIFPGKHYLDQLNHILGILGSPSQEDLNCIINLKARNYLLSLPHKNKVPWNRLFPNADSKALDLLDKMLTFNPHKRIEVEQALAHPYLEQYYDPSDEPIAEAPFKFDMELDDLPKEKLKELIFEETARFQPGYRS
UniProt P27361: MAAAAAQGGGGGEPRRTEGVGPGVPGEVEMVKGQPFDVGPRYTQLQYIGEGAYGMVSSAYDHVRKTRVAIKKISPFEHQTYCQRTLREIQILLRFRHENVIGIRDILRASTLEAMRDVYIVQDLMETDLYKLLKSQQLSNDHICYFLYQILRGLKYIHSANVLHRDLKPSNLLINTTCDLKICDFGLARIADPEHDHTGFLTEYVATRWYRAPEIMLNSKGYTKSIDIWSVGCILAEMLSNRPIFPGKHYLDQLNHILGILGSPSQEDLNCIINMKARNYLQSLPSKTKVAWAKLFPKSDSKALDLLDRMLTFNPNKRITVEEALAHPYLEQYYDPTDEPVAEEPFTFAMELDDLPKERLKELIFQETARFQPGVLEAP

The results in this text go back to article PMC5325621.

Assay [1] concerns the target YFP-β-arrestin2 (wild type) (rat) (UniProt P29067). In words: co-IP; HEK-293 cells co-expressing YFP-β-arrestin2 and 5-HT2C receptor, vehicle or 1 µM 5-HT; Erk1/2 blotted in the YFP-β-arrestin2 immunoprecipitates.
The target in assay [2] is YFP-β-arrestin2 Thr383Asp mutant (rat) (UniProt P29067). The assay is described as above.

For the substance “Extracellular signal-regulated kinase Erk2 (from UniProt P28482 1-360) (enzyme)”, the binding entry in assay [1] and in assay [2] was “binds” in each case.

In the case of “Extracellular signal-regulated kinase Erk1 (from UniProt P27361 1-379) (enzyme)”, the binding entry in assay [1] and in assay [2] was “binds” throughout.
